Data reported in publication PMC8287954.
These are yes or no findings as the source states them, for the method shown. Some binding calls cover weakened binding; strength is not graded here.

The chains behind the UniProt entries cited, without tags or fusion partners. Residues count along the entry.
UniProt O14893, residues 12-280: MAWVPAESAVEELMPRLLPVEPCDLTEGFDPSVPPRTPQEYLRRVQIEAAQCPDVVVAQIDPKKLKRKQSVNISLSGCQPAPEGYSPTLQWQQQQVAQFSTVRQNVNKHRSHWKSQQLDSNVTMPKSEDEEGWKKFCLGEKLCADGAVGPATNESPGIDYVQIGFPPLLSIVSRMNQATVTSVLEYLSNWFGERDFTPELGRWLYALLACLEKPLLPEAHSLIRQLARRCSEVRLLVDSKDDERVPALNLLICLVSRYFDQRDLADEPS
UniProt Q16637: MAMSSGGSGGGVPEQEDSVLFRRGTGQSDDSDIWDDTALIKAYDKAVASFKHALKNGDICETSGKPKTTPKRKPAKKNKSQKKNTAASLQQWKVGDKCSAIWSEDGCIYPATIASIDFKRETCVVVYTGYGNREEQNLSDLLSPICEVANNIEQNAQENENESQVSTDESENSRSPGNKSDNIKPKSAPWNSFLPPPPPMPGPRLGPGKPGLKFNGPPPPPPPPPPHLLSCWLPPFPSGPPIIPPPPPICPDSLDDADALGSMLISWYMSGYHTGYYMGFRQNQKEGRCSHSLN

Biological target: human Gemin2 (12-280)-Mxe intein-His6 (human) (UniProt O14893)
Assay: co-purification of co-expressed proteins; bacterial co-expression; human: Ni-NTA and chitin beads by the Mxe intein-His6 on Gemin2, then Superdex 200

- binding: binds
Substance: human SMN (residues 1-294) (from UniProt Q16637 1-294)
